This is one part of the list.

The chains behind the UniProt entries cited, without tags or fusion partners. Where a name states a change or a piece, a line headed by the entry shows the natural chain unless it says otherwise.
UniProt Q9Y692: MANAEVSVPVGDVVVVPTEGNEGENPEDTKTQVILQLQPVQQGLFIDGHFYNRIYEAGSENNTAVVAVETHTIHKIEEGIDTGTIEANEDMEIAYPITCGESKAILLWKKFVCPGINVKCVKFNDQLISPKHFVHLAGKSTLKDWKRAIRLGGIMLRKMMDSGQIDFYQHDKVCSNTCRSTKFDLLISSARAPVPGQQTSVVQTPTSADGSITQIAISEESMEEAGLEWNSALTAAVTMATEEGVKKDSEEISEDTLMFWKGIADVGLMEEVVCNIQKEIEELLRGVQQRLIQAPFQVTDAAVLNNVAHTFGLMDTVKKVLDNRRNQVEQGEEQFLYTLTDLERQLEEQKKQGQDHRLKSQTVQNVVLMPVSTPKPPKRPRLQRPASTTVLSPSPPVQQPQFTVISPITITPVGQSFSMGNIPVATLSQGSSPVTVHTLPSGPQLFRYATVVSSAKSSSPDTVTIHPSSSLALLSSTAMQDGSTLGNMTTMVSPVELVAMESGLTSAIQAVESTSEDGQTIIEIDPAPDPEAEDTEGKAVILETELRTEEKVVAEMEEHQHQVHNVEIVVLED
UniProt Q04760: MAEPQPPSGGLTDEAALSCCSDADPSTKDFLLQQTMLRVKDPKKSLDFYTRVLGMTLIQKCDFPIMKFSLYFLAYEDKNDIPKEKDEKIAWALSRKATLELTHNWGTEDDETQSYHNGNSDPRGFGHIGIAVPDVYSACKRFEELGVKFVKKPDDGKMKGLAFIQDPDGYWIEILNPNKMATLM
UniProt Q9HAV0, whole entry, looked up: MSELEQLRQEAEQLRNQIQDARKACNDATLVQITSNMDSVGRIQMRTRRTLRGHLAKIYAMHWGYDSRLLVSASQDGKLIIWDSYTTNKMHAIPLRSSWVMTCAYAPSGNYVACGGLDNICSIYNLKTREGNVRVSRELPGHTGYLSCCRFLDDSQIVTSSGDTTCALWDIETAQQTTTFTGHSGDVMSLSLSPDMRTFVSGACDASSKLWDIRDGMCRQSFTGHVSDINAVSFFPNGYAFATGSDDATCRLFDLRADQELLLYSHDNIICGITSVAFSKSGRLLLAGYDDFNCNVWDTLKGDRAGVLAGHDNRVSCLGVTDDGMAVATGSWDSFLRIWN
UniProt P49915: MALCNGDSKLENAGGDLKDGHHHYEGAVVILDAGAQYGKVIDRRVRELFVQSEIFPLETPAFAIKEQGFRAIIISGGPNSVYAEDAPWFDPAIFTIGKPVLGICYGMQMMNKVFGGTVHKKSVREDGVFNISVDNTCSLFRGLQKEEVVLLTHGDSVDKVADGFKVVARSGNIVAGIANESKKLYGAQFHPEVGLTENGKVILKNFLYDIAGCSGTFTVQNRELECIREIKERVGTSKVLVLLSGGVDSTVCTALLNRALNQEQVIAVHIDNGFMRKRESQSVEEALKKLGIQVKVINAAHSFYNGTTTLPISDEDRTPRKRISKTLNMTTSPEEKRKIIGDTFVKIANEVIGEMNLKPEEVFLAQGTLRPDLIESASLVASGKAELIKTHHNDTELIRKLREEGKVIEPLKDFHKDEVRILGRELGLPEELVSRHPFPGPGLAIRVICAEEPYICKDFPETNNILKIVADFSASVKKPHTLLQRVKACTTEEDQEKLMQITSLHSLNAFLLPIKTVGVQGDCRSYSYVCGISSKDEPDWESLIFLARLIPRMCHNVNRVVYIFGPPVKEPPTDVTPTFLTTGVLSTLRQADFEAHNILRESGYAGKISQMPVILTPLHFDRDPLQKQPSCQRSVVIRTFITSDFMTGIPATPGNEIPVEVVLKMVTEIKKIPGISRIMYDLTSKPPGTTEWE
UniProt Q6Y7W6: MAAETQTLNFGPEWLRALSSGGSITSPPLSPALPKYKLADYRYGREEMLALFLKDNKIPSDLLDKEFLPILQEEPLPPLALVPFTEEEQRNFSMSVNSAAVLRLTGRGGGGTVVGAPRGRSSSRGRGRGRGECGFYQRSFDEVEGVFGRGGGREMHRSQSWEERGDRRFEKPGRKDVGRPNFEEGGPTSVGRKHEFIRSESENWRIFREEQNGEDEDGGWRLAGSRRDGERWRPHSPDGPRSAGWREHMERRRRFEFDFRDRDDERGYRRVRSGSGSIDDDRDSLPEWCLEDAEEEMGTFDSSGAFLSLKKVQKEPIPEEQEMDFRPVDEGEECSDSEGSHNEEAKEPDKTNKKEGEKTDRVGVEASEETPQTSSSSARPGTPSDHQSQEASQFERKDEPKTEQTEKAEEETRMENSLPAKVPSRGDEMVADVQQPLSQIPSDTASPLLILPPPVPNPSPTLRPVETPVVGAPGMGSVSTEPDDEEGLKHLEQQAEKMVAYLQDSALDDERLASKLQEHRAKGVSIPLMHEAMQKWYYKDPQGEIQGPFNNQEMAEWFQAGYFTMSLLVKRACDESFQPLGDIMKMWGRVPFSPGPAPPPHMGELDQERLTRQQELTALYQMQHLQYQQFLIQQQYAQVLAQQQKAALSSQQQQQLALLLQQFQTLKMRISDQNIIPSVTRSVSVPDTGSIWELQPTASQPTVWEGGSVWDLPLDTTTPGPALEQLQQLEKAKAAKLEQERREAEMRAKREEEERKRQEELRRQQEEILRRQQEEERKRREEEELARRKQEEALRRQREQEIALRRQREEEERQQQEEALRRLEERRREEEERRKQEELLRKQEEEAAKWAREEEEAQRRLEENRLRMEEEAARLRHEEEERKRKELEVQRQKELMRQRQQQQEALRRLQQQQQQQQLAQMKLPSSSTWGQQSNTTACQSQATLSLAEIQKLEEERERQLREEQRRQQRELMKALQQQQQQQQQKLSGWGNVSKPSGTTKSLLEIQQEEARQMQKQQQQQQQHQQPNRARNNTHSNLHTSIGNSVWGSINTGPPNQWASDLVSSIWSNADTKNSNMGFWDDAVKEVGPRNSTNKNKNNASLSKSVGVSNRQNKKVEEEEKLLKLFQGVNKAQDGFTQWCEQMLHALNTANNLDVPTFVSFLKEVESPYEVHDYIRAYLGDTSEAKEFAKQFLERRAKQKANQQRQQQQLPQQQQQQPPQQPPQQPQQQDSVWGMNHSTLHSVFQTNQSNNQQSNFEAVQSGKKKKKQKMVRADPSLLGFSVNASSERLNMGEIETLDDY
UniProt O94925: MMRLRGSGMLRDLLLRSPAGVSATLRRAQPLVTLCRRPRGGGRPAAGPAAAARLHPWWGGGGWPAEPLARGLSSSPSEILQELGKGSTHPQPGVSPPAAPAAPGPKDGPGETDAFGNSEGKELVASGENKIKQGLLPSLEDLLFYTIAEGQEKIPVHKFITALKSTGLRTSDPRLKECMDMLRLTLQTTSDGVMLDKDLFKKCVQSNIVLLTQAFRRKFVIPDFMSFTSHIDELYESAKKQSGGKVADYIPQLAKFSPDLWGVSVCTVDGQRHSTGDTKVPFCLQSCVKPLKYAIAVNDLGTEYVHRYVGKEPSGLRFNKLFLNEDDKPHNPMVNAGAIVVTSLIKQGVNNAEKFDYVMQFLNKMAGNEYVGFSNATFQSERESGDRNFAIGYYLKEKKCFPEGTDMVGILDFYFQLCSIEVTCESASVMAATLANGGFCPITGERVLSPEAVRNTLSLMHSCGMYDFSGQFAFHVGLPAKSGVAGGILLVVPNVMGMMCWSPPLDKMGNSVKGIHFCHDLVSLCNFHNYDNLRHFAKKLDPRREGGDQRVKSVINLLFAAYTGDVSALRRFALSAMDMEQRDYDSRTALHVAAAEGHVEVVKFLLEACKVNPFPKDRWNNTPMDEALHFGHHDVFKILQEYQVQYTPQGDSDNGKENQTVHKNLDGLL
UniProt Q3T906: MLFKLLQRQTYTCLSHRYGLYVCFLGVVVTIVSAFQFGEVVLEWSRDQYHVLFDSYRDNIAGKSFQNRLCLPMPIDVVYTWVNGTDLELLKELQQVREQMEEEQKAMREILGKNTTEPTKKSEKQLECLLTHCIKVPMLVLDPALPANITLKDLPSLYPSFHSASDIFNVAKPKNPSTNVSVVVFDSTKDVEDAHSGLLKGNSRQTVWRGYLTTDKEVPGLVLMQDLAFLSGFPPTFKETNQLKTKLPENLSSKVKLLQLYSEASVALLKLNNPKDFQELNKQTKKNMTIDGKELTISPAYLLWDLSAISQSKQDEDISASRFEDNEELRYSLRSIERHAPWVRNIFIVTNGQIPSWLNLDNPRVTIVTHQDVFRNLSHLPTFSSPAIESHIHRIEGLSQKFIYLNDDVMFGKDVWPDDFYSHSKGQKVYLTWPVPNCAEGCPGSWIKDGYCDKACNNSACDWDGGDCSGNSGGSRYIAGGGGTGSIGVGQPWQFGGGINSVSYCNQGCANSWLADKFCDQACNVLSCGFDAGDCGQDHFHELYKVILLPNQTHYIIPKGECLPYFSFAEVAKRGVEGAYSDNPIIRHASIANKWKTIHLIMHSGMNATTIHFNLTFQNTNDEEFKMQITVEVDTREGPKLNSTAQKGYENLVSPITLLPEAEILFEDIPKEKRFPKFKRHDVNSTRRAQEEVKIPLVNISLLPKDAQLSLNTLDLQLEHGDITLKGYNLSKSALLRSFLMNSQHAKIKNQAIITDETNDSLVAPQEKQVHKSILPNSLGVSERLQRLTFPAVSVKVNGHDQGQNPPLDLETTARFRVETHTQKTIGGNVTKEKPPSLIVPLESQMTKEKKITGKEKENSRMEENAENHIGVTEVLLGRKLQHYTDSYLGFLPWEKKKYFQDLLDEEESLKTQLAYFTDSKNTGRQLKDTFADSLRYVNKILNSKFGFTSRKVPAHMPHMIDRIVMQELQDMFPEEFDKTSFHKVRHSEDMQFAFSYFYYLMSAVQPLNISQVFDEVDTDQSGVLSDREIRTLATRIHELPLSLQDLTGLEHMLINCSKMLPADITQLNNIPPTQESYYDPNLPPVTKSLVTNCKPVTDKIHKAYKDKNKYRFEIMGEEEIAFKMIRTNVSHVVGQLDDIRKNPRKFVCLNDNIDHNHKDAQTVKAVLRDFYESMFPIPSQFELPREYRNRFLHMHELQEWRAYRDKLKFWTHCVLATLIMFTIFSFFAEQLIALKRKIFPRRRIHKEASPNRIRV
UniProt P36959: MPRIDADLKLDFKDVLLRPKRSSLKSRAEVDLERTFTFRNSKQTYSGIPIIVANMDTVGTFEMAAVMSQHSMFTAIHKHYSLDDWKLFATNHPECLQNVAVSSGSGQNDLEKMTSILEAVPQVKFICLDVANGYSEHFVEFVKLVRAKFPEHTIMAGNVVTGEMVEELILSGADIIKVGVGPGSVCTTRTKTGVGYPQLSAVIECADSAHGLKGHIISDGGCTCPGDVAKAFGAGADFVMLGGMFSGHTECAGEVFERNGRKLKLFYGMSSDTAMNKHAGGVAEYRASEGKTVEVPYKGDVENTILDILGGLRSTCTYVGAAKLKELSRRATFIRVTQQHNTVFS
UniProt Q9Y3E0: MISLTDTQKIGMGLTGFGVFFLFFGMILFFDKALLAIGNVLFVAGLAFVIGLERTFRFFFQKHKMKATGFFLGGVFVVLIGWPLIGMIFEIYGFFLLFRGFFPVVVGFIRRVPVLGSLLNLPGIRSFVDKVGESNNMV
UniProt Q9UKD1: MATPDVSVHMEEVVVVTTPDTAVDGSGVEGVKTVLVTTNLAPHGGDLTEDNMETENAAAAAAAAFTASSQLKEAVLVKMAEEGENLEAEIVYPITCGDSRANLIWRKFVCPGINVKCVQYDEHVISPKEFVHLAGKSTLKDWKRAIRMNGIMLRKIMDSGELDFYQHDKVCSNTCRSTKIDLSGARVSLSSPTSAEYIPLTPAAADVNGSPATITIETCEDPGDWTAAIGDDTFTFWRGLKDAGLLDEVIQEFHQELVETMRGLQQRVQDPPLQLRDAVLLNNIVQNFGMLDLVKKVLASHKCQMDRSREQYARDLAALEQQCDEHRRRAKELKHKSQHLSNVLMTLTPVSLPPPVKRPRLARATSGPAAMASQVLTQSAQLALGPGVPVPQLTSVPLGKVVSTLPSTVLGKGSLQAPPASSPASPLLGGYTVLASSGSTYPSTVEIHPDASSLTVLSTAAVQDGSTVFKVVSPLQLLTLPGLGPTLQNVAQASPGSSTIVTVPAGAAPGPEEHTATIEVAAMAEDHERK
UniProt Q49A26: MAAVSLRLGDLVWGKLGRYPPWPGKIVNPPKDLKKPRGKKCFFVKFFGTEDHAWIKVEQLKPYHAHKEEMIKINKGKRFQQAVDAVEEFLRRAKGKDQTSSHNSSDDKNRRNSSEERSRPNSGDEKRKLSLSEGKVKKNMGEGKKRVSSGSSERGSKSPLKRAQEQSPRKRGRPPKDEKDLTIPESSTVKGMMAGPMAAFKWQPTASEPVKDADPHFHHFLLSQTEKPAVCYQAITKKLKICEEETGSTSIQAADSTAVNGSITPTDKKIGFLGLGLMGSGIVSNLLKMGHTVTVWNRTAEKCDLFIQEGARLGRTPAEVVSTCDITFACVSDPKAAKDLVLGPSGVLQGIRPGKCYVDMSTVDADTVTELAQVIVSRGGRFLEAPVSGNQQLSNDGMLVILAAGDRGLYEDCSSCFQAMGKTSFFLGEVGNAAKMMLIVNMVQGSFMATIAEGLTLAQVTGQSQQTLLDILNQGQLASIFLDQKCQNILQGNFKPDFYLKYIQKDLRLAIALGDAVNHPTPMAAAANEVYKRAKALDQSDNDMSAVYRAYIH

Compound in the assay: COc1cccc2cc(-c3nc([C@H]4CC[C@H](C(=O)O)CC4)n4ncnc(N)c34)[nH]c12
Put plainly: log2 fold change, soluble protein after heating vs DMSO (PISA); higher = thermal stabilisation; K562 cells, 10 uM, 30 min; active = over 0.2 and 3.5 SD of the protein, either way, in both replicates (recomputed). Put shortly: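 K562 cells at 2×10^6 cells/mL were exposed to 10 μM compound for 30 min, then aliquots were heated for 3 min across 48°C-58°C, pooled, and extracted in PBS containing 0.5% NP-40 at 4°C. The supernatant after 21,000xg for 90 min was taken as soluble protein and measured by TMTpro 16plex LC-MS/MS with channel sums equalised. Thermal stability is reported relative to control samples, with values from duplicates. Fold changes are given on a log2 scale.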
With GMEB1 (UniProt Q9Y692), the log2 fold change was inactive: 0.008. For GLO1 (UniProt Q04760), the log2 fold change is inactive: 0.011. As to GOPC (UniProt Q9HD26), the log2 fold change is inactive: -0.146. The value for GON4L (UniProt Q3T8J9) was inactive: 0.193. On to GNB4 (UniProt Q9HAV0), for which the log2 fold change is inactive: 0.067. As to GPN3 isoform 2 (UniProt Q9UHW5), the log2 fold change was inactive: 0.052. For GMPS (UniProt P49915), the log2 fold change was inactive: 0.021. For GINS1 (UniProt Q14691), the log2 fold change is inactive: -0.072.

Take GIGYF2 (UniProt Q6Y7W6): the log2 fold change was inactive: -0.026. As to GLS (UniProt O94925), the log2 fold change was inactive: -0.009. Regarding GPAT3 (UniProt Q53EU6), the log2 fold change is inactive: 0.061.

Regarding GNPTAB (UniProt Q3T906), the log2 fold change is inactive: -0.013. GMPR (UniProt P36959): the log2 fold change is inactive: 0.048. As for GLB1L2 (UniProt Q8IW92), the log2 fold change is inactive: -0.046. Turning to GOLT1B (UniProt Q9Y3E0), the log2 fold change is inactive: 0.09. In the case of GMEB2 (UniProt Q9UKD1), the log2 fold change is inactive: 0.027. Consider GPD1L (UniProt Q8N335), for which the log2 fold change was inactive: -0.007. Regarding GMFG (UniProt O60234), the log2 fold change was inactive: -0.001. With GNPNAT1 (UniProt Q96EK6), the log2 fold change is inactive: 0.074.

GOT2 (UniProt P00505): the log2 fold change was inactive: 0.013. As to GLUL (UniProt P15104), the log2 fold change is active: -0.225. As for GLG1 isoform 2 (UniProt Q92896), the figure is inactive: 0.029.

For GLYR1 (UniProt Q49A26), the log2 fold change is inactive: -0.07. As to GOT1 (UniProt P17174), the log2 fold change is inactive: 0.017.

The values above are taken from the supplement of paper PMC10849652.
